PubChem BioAssay AID743121 – NCATS, 2013

- Screen: 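Knock-downs that sensitise breast cancer cells to camptothecin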 (primary screen)
- Cells: MDA-MB-231 cells, a human breast cancer line
- Reagent: single siRNA against human genes, 20 nM siRNA (0.8 pmol per well)
- Duration: 120 h (drug added 48 h after transfection, read 72 h later)
- Treatment: camptothecin 20 nM (about EC30) for 72 h; vehicle 0.1% DMSO in parallel plates
- Read-out: 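Cell viability by ATP luminescence (CellTiter-Glo) as % of non-targeting siRNA wells, and the log2 ratio of viability without drug over viability with camptothecin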
- Reading the numbers: log2 vehicle/camptothecin viability: higher = stronger sensitisation to camptothecin
- Hit rule: 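Each gene scored by redundant siRNA activity (RSA) over its individual siRNA ratios; a gene is called active at p < 0.001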
In all, the deposit lists about 26,000 reagents; this is a part drawn at random. Of all reagents, 167 (0.63%) got an active call. 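Calls are per gene from RSA p-values that are not deposited; an individual active-marked siRNA can sensitise only weakly.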 Reagents against one gene are numbered here. Further read-outs or replicates are left out here. No sequences are given here.

log2 vehicle/camptothecin viability, by gene and reagent
PKN2 (protein kinase N2): #1 -0.181 inactive; #2 0.965 inactive; #3 -0.122 inactive; #4 -0.449 inactive
HACD2 (3-hydroxyacyl-CoA dehydratase 2): #1 0.46 inactive; #2 -0.542 inactive; #3 -0.578 inactive; #4 0.345 inactive
TFAP2C (transcription factor AP-2 gamma): #1 0.0499 inactive; #2 0.0538 inactive; #3 -0.371 inactive
HEY1: #1 -0.103 inactive; #2 -0.0756 inactive; #3 0.0373 inactive; #4 0.667 inactive
AIPL1 (AIP like 1 HSP90 co-chaperone): #1 -0.239 inactive; #2 -0.0781 inactive; #3 -0.408 inactive
CNTNAP1 (contactin associated protein 1): #1 -0.22 inactive; #2 0.101 inactive; #3 0.646 inactive; #4 -0.48 inactive
KITLG (KIT ligand): #1 -0.0418 inactive; #2 -0.0134 inactive; #3 0.0906 inactive; #4 -0.54 inactive
NAGK (N-acetylglucosamine kinase): #1 -0.523 inactive; #2 -0.629 inactive; #3 0.1 inactive; #4 0.286 inactive
RPA4 (replication protein A4): #1 -0.0935 inactive; #2 -0.0708 inactive; #3 -0.56 inactive; #4 -0.0664 inactive
OR6A2 (olfactory receptor family 6 subfamily A member 2): #1 -0.382 inactive; #2 0.695 inactive; #3 -0.597 inactive; #4 -0.664 inactive
HIPK1 (homeodomain interacting protein kinase 1): #1 -0.242 inactive; #2 -0.0547 inactive; #3 -0.495 inactive; #4 -0.226 inactive
TAB1 (TGF-beta activated kinase 1 (MAP3K7) binding protein 1): #1 0.301 inactive; #2 0.0242 inactive; #3 -0.0116 inactive; #4 -0.193 inactive

In a second layout: results already given.
{"gene": "HACD2 (3-hydroxyacyl-CoA dehydratase 2)", "reagent": 3, "log2 vehicle/camptothecin viability": -0.578, "activity call": "inactive"}
{"gene": "HACD2 (3-hydroxyacyl-CoA dehydratase 2)", "reagent": 4, "log2 vehicle/camptothecin viability": 0.345, "activity call": "inactive"}
{"gene": "TFAP2C (transcription factor AP-2 gamma)", "reagent": 1, "log2 vehicle/camptothecin viability": 0.0499, "activity call": "inactive"}
{"gene": "TFAP2C (transcription factor AP-2 gamma)", "reagent": 2, "log2 vehicle/camptothecin viability": 0.0538, "activity call": "inactive"}
{"gene": "TFAP2C (transcription factor AP-2 gamma)", "reagent": 3, "log2 vehicle/camptothecin viability": -0.371, "activity call": "inactive"}

More results:
log2 vehicle/camptothecin viability, by gene and reagent
AHCYL2 (adenosylhomocysteinase like 2): #1 0.115 inactive; #2 -0.156 inactive; #3 -0.613 inactive
DOK4 (docking protein 4): #1 -0.317 inactive; #2 0.084 inactive; #3 0.0115 inactive; #4 -0.0129 inactive
GHR (growth hormone receptor): #1 0.133 inactive; #2 0.131 inactive; #3 0.00713 inactive; #4 -0.34 inactive
ADM (adrenomedullin): #1 -0.699 inactive; #2 -0.254 inactive; #3 -0.219 inactive; #4 0.253 inactive
LIN7B (lin-7 cell polarity scaffold B): #1 -0.32 inactive; #2 -0.279 inactive; #3 0.132 inactive; #4 -0.0511 inactive
MCF2 (MCF.2 cell line derived transforming sequence): #1 -0.0653 inactive; #2 -0.595 inactive; #3 -0.227 inactive; #4 -0.327 inactive
